# PubChem BioAssay AID1508597 | Cure First – 2020
# Screen: 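Survival screen with siRNA in ovarian cancer cells derived from patients, with or without rucaparib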 (primary screen)
# System: human ovarian carcinoma lines grown from tumours: OCI-P5x (papillary serous) and OCI-C5x (clear cell)
# Reagents: siRNA pool against human genes, 1.25 pmol siRNA per well
# Duration: 72 h or 96 h, depending on the cell culture
# Treatment: rucaparib 20 µM (about IC30) or vehicle, present until read-out
# Rucaparib or vehicle: Rucaparib
# Cell line: OCI-P5x (serous)
# Detection: 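Luminescent ATP-based viability assay read 72 or 96 h after transfection, depending on culture, given as normalised percent viability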
# Scale: viability, normalised: higher = more viable cells remaining
# Active means: 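a well counts as a hit if its normalised viability is under 80 percent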
# Calls: active = viability under 80%; inactive = viability 80% or more
# This is a random part of the about 2,100 reagents, in one setting of the screen. 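Calls flag viability under 80% in either arm, not effects specific to rucaparib; the reference for percent is not stated.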 Not stated in the record: the 100% reference.
The first 9 records as a preview:
target,technical replicate,"viability, normalised (%)",Outcome
PRKCG (GeneID 5582),1,87.2,inactive
PRKCG (GeneID 5582),2,99.8,inactive
PRKCG (GeneID 5582),3,89.2,inactive
ZNF623 (GeneID 9831),1,78.7,active
ZNF623 (GeneID 9831),2,59.1,active
ZNF623 (GeneID 9831),3,73,active
CDK17 (GeneID 5128),1,134,inactive
CDK17 (GeneID 5128),2,94.5,inactive
CDK17 (GeneID 5128),3,92.4,inactive

Main list, repeating the preview:
target,technical replicate,"viability, normalised (%)",Outcome
PRKCG (GeneID 5582),1,87.2,inactive
PRKCG (GeneID 5582),2,99.8,inactive
PRKCG (GeneID 5582),3,89.2,inactive
ZNF623 (GeneID 9831),1,78.7,active
ZNF623 (GeneID 9831),2,59.1,active
ZNF623 (GeneID 9831),3,73,active
CDK17 (GeneID 5128),1,134,inactive
CDK17 (GeneID 5128),2,94.5,inactive
CDK17 (GeneID 5128),3,92.4,inactive
CDK9 (GeneID 1025),1,75.7,active
CDK9 (GeneID 1025),2,82.8,inactive
CDK9 (GeneID 1025),3,79,active
CHMP1A (GeneID 5119),1,62.9,active
CHMP1A (GeneID 5119),2,70,active
CHMP1A (GeneID 5119),3,83,inactive
FASTK (GeneID 10922),1,82.4,inactive
FASTK (GeneID 10922),2,76.5,active
FASTK (GeneID 10922),3,64.4,active
DAPK1 (GeneID 1612),1,99.6,inactive
DAPK1 (GeneID 1612),2,114,inactive
DAPK1 (GeneID 1612),3,98.4,inactive
PIP4K2B (GeneID 8396),1,70.9,active
PIP4K2B (GeneID 8396),2,69.6,active
PIP4K2B (GeneID 8396),3,68,active
RALY (GeneID 22913),1,72.3,active
RALY (GeneID 22913),2,77.8,active
RALY (GeneID 22913),3,68.9,active
PDE4C (GeneID 5143),1,48.8,active
PDE4C (GeneID 5143),2,55.2,active
PDE4C (GeneID 5143),3,54.9,active
RBKS (GeneID 64080),1,65,active
RBKS (GeneID 64080),2,78.7,active
RBKS (GeneID 64080),3,67.6,active
WNT5A (GeneID 7474),1,76.7,active
WNT5A (GeneID 7474),2,71,active
WNT5A (GeneID 7474),3,42.1,active
MAPK3 (GeneID 5595),1,96.8,inactive
MAPK3 (GeneID 5595),2,98,inactive
MAPK3 (GeneID 5595),3,93.3,inactive
RTEL1 (GeneID 51750),1,54.6,active
RTEL1 (GeneID 51750),2,66.2,active
RTEL1 (GeneID 51750),3,59.7,active
RPS6KL1 (GeneID 83694),1,56.7,active
RPS6KL1 (GeneID 83694),2,60.4,active
RPS6KL1 (GeneID 83694),3,65.9,active
ENPP5 (GeneID 59084),1,72,active
ENPP5 (GeneID 59084),2,66.1,active
ENPP5 (GeneID 59084),3,72.6,active
KSR1 (GeneID 8844),1,60.4,active
KSR1 (GeneID 8844),2,95.3,inactive
KSR1 (GeneID 8844),3,92,inactive
CDK6 (GeneID 1021),1,69.4,active
CDK6 (GeneID 1021),2,51.5,active
CDK6 (GeneID 1021),3,77.6,active
HDAC10 (GeneID 83933),1,57.1,active
HDAC10 (GeneID 83933),2,55.2,active
HDAC10 (GeneID 83933),3,47,active
SATB2 (GeneID 23314),1,33.2,active
SATB2 (GeneID 23314),2,42.3,active
SATB2 (GeneID 23314),3,47.6,active
WDR5 (GeneID 11091),1,43.9,active
WDR5 (GeneID 11091),2,37.4,active
WDR5 (GeneID 11091),3,48.2,active
PHKG1 (GeneID 5260),1,44.3,active
PHKG1 (GeneID 5260),2,48.9,active
PHKG1 (GeneID 5260),3,47.8,active
EEF1E1 (GeneID 9521),1,115,inactive
EEF1E1 (GeneID 9521),2,124,inactive
EEF1E1 (GeneID 9521),3,107,inactive
RNF17 (GeneID 56163),1,59.1,active
RNF17 (GeneID 56163),2,55.1,active
RNF17 (GeneID 56163),3,50.5,active
ATAT1 (GeneID 79969),1,65.2,active
ATAT1 (GeneID 79969),2,77.4,active
ATAT1 (GeneID 79969),3,74.4,active
